± gives the standard deviation of the averaged measurements. The entries are a selection whose mix differs from that of the whole data set. Most values lie at the level of the controls, where differences are scatter.

The chains behind the UniProt entries cited, without tags or fusion partners. Where a name states a change or a piece, a line headed by the entry shows the natural chain unless it says otherwise.
UniProt Q9BWM7: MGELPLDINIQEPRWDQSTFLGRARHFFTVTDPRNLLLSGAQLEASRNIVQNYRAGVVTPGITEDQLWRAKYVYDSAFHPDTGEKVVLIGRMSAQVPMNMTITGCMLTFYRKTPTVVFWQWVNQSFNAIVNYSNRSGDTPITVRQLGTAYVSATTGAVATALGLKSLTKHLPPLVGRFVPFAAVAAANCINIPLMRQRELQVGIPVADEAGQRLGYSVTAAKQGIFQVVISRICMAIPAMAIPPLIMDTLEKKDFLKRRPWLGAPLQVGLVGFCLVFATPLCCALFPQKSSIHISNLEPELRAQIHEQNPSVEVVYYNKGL
UniProt Q2M2I8: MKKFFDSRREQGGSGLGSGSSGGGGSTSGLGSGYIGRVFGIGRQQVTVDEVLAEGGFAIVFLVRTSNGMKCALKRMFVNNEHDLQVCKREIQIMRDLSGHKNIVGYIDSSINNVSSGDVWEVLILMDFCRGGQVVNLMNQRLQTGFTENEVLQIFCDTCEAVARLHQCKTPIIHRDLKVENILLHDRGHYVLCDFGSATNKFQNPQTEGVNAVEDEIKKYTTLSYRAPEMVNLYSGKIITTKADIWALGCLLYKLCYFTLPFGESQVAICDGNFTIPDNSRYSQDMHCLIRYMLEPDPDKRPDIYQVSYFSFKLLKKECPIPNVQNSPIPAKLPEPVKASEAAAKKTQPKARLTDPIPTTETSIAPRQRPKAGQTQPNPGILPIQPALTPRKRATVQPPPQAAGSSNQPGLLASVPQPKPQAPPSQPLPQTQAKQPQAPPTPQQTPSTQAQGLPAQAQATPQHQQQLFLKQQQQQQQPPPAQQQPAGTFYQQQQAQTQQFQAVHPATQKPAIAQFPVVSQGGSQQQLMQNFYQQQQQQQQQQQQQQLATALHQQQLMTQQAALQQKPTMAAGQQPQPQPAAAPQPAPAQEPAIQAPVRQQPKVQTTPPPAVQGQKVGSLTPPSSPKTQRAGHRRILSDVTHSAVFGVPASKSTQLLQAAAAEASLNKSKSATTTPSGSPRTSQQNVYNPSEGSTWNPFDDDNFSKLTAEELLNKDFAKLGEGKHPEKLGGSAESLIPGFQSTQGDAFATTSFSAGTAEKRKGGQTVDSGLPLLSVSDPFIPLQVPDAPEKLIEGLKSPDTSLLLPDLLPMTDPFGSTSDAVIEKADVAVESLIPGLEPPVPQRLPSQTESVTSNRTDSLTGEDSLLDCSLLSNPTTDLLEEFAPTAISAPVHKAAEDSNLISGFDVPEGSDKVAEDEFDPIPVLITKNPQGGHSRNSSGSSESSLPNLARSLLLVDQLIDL
UniProt Q8IXQ4: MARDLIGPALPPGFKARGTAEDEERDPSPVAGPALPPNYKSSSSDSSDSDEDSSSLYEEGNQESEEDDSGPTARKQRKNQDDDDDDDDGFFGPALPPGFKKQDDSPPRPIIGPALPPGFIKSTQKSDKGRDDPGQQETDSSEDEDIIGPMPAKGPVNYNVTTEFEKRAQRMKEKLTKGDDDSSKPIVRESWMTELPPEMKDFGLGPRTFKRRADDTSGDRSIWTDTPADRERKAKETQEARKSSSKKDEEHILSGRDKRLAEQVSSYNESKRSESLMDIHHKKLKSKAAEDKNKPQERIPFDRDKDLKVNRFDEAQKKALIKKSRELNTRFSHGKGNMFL
UniProt Q5JTV8: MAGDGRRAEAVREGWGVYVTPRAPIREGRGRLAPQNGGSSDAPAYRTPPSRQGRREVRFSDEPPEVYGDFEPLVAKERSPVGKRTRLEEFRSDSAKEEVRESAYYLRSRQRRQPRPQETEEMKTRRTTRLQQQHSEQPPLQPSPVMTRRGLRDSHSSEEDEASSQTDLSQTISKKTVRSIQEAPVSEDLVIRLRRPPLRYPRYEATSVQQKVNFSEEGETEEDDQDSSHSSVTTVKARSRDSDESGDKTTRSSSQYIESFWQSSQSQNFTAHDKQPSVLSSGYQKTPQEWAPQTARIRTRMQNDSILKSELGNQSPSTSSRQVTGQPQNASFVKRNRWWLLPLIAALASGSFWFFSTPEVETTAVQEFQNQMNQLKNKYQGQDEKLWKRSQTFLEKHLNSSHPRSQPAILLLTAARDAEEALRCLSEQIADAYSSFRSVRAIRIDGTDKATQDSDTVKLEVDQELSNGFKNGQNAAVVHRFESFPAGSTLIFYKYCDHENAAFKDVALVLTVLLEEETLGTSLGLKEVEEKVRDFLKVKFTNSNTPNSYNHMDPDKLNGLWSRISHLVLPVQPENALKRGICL
UniProt P39656: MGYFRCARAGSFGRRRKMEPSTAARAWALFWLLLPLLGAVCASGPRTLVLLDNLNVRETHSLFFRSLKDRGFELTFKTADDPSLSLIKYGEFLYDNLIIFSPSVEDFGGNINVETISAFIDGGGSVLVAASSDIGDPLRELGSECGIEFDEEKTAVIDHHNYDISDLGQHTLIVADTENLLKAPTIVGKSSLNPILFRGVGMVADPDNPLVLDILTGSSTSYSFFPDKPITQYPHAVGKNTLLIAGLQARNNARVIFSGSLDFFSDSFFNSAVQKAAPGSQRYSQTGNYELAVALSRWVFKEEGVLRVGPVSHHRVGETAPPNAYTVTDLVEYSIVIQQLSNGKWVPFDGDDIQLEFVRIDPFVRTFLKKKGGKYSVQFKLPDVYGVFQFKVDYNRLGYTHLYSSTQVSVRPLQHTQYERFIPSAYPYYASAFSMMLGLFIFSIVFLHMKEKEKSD
UniProt O14981: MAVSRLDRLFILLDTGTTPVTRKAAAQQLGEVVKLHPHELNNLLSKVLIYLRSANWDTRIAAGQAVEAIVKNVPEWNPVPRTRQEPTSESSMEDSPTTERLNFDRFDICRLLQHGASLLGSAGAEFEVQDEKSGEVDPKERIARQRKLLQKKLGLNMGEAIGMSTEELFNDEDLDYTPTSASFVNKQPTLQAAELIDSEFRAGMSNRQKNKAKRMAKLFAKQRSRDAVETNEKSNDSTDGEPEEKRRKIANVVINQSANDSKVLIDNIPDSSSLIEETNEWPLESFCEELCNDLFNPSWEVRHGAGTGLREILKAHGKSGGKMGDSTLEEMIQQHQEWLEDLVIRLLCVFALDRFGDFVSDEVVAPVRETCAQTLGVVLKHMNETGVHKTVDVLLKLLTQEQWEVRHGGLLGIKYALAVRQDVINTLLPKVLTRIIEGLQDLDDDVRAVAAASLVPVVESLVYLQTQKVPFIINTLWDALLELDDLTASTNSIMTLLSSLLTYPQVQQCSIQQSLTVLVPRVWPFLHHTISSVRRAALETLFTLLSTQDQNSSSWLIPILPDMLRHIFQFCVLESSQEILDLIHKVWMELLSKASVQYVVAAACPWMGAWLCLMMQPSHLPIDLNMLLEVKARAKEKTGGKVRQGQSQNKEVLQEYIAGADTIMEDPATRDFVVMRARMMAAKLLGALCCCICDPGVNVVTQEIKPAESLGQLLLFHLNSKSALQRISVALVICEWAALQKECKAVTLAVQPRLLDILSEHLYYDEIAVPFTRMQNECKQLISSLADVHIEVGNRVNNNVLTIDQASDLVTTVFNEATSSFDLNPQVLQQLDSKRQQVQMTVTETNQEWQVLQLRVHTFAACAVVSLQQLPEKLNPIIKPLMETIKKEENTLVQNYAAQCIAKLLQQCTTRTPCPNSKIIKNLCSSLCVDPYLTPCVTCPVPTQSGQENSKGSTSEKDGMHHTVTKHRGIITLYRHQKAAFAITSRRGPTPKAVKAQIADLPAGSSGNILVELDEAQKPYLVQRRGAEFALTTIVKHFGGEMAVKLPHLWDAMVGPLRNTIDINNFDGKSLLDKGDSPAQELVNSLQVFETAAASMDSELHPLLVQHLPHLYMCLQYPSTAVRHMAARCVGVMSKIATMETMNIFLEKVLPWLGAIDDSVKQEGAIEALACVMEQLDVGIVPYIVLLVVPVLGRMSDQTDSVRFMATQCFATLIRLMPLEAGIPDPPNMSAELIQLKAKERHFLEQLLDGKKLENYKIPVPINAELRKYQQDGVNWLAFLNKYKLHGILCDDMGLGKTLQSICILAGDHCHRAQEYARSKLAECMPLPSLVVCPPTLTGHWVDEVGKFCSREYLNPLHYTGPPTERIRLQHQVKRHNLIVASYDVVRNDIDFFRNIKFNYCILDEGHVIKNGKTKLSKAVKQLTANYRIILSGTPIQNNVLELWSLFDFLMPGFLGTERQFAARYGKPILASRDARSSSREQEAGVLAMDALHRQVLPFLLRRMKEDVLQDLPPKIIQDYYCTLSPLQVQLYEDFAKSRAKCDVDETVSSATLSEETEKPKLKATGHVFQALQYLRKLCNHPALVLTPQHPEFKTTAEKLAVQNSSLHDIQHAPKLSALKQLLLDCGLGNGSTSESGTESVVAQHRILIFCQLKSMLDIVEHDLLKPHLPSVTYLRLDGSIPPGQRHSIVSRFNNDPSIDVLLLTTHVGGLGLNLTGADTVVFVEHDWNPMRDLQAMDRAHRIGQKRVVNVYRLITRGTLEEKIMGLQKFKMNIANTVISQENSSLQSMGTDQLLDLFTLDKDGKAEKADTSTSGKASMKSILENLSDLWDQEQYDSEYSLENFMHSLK
UniProt Q13418: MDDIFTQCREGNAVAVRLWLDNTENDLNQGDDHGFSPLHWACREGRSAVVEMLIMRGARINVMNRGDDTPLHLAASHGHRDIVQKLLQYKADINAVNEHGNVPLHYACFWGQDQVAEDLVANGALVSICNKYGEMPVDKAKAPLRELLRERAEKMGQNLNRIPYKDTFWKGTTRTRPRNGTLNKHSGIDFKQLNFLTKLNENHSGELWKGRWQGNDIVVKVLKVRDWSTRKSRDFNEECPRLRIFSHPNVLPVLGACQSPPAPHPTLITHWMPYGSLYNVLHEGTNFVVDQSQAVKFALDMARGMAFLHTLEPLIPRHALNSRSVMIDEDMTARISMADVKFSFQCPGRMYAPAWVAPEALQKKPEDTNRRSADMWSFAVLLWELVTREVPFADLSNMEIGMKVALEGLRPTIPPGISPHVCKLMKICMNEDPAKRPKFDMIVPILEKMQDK
UniProt Q15651: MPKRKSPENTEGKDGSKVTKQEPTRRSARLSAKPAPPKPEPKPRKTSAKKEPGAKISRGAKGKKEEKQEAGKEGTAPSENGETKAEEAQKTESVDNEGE
UniProt Q9BSQ5: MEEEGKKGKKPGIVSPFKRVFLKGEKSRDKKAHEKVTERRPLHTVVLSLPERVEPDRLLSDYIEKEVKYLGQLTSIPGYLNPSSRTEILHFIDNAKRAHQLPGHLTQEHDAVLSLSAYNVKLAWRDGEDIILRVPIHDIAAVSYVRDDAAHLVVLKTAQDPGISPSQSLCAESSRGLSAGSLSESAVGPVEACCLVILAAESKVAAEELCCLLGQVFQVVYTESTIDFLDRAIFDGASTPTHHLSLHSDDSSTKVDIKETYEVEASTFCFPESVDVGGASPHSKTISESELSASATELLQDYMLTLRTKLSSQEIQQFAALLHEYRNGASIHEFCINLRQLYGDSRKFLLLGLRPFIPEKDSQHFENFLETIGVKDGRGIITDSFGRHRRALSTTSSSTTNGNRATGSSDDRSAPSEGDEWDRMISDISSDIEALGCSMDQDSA
UniProt P42330: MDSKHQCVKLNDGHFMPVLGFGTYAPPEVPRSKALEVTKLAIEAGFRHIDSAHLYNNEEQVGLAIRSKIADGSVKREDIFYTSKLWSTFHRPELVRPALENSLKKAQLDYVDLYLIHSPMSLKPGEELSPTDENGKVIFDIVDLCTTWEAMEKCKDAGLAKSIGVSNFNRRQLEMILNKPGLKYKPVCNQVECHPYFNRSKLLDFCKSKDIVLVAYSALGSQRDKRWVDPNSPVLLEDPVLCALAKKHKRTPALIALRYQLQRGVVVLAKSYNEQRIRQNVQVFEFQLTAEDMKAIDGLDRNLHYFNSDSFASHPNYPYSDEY
UniProt Q96T83: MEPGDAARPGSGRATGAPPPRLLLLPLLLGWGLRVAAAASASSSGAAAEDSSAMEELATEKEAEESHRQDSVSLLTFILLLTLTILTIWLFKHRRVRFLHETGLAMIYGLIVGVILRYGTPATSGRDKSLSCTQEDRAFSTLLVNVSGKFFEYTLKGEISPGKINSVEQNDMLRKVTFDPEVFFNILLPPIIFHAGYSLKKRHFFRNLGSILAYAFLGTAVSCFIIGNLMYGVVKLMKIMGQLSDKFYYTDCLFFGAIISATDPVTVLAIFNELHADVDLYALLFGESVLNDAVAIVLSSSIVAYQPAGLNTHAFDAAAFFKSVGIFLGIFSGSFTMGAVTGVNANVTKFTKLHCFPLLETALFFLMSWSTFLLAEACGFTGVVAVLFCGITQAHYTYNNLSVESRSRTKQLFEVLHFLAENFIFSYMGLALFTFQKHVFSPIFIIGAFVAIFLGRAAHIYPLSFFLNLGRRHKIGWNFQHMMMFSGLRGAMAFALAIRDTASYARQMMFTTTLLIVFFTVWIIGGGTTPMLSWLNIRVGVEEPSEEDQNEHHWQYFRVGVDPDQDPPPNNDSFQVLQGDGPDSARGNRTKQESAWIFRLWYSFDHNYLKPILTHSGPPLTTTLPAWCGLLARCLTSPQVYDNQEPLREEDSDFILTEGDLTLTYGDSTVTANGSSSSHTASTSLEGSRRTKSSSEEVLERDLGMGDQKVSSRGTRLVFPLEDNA

For 37 targets, NP40-soluble protein abundance results are on record in the supplement of paper PMC6411743.

Compound in one assay: Nc1ncnc2c1ncn2[C@@H]1O[C@H](COP(=O)(O)OP(=O)(O)OP(=O)(O)O)[C@@H](O)[C@H]1O [adenosine triphosphate]
As to the kind of experiment: NP40-soluble protein abundance relative to vehicle (solubility fold change) (ratio); higher = more soluble protein in presence of ATP. Particulars: concentration: 0.1mM. The essentials: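 Data come from three independent experiments in which Dounce-homogenised Jurkat crude lysate was treated at eight concentrations from 0.1 to 10 mM. Treatment ran 10 min at room temperature and then 3 min at 37 °C, after which 0.8% NP40 and benzonase were added for 60 min at 4 °C before ultracentrifugation. The supernatant underwent TMT labelling and LC-MS/MS, and vsn-normalised intensities were expressed as fold change against the detergent-processed vehicle in each replicate.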
Take A0A0A0MS41|Q9BWM7 (UniProt Q9BWM7): the NP40-soluble protein abundance was 0.947 ± 0.041.
On the same count and under the same terms, next, “A0A0C4DFN8|P22570 and related entries (UniProt P22570)”: 1.06 ± 0.064; A0A0A0MS49|Q8TEH3 (UniProt Q8TEH3): 1.03 ± 0.068; “A0A0A0MTP3|Q99550 and related entries (UniProt Q99550)”: 0.914 ± 0.02.
Regarding “A0A096LP25|Q2M2I8 and related entries (UniProt Q2M2I8)”, the NP40-soluble protein abundance is 1.02 ± 0.044.
Same read-out and setting: next, “A0A0A0MSJ9|Q15283 and related entries (UniProt Q15283)”: 1.06 ± 0.11; “A0A087WTU1|A0A087X0S7|A0A0B4J2G4|A0A0C4DH00|Q15345 and related entries (UniProt Q15345)”: 1.06 ± 0.045; A0A087WZV8|A0A0G2JN66 (UniProt P01850): 1 ± 0.043.
Same read-out and setting: next, A0A0A0MRI1|Q8IXQ4 (UniProt Q8IXQ4): 0.938 ± 0.022; “A0A0A0MRR5|Q96BW1 and related entries (UniProt Q96BW1)”: 0.997 ± 0.045.
On the same count and under the same terms, the value for A0A087WUD1 (UniProt Q6DD87) was 1.039 ± 0.0046; that for A0A075B746|P82921 (UniProt P82921) was 0.978 ± 0.16; that for “A0A0C4DG33|H7BZH3 and related entries (UniProt O43933)” was 1.07 ± 0.071.
For “A0A0C4DGG9|Q14839 and related entries (UniProt Q14839)”, the NP40-soluble protein abundance came out at 0.998 ± 0.032.
As to A0A075B6F9|Q9Y314 (UniProt Q9Y314), the NP40-soluble protein abundance worked out at 0.993 ± 0.045.
Same read-out and setting: next, “A0A087WT12|A0A087X2I2|K7ERP4 and related entries (UniProt P36969)”: 0.984 ± 0.027; A0A0C4DGZ1|Q8N5P1 (UniProt Q8N5P1): 0.952 ± 0.041.
Same read-out and setting: next, “A0A0A0MSK5|Q5JTV8 and related entries (UniProt Q5JTV8)”: 0.968 ± 0.031; A0A087WTX2|Q92504 (UniProt Q92504): 0.946 ± 0.015; A0A0C4DGS1|P39656 (UniProt P39656): 1.04 ± 0.078.
A0A0A0MTH9|O14981 (UniProt O14981): the NP40-soluble protein abundance is 1.02 ± 0.012.
Still for that read-out and setting: next, “A0A0C4DGX2|E7ESL0 and related entries (UniProt Q9NWU5)”: 0.99 ± 0.11; A0A087WXI1|Q6NVY1 (UniProt Q6NVY1): 1.05 ± 0.058.
“A0A087WVS8|Q70IA6 and related entries (UniProt Q70IA6)”: the NP40-soluble protein abundance turned out to be 1.05 ± 0.029.
Still for that read-out and setting: the value for A0A0A0MTD5|Q8IYU8 (UniProt Q8IYU8) was 0.964 ± 0.29; that for “A0A075B716|H0YN88 and related entries (UniProt P08708)” was 0.908 ± 0.12; that for “A0A087WWU1|Q96Q45 and related entries (UniProt Q96Q45)” was 1 ± 0.073.
Still for that read-out and setting: next, A0A0A0MTH3|Q13418 (UniProt Q13418): 1.01 ± 0.062; “A0A0D9SFR6|Q86XP1 and related entries (UniProt Q86XP1)”: 1.02 ± 0.1.
Regarding “A0A0C4DGT5|Q5RL73 and related entries (UniProt Q5RL73)”, the NP40-soluble protein abundance was 0.942 ± 0.13.
“A0A087WUM0|A0A087WYV9|A0A087X1F5 (UniProt P57105)”: the NP40-soluble protein abundance worked out at 0.959 ± 0.086.
Same read-out and setting: next, A0A087WZE9|Q15651 (UniProt Q15651): 1.03 ± 0.14.
Same read-out and setting: next, “A0A0A0MT72|Q9BSQ5 and related entries (UniProt Q9BSQ5)”: 1.01 ± 0.028; A0A087X0Q9|Q9BVL4 (UniProt Q9BVL4): 1.07 ± 0.026.
The same measure, in the same setting: the value for “A0A0A6YYL2|P0DMM9 and related entries (UniProt P0DMN0+P0DMM9)” was 1.06 ± 0.075; that for “A0A0A0MSS8|P42330 and related entries (UniProt P42330)” was 1.03 ± 0.062; that for A0A087WXD1|Q96T83 (UniProt Q96T83) was 1.03 ± 0.037.

The assay is the same for the next values; noted with them: concentration: 0.5mM.
For the target A0A0A0MS41|Q9BWM7 (UniProt Q9BWM7), the NP40-soluble protein abundance amounted to 0.965 ± 0.029.
Same read-out and setting: next, “A0A0C4DFN8|P22570 and related entries (UniProt P22570)”: 1.07 ± 0.059; A0A0A0MS49|Q8TEH3 (UniProt Q8TEH3): 1.13 ± 0.076.
Still for that read-out and setting: next, “A0A0A0MTP3|Q99550 and related entries (UniProt Q99550)”: 0.923 ± 0.079.
For the target “A0A096LP25|Q2M2I8 and related entries (UniProt Q2M2I8)”, the NP40-soluble protein abundance is 1.03 ± 0.039.
Still for that read-out and setting: next, “A0A0A0MSJ9|Q15283 and related entries (UniProt Q15283)”: 1.05 ± 0.09.
On the same count and under the same terms, the value for “A0A087WTU1|A0A087X0S7|A0A0B4J2G4|A0A0C4DH00|Q15345 and related entries (UniProt Q15345)” was 0.999 ± 0.022; that for A0A087WZV8|A0A0G2JN66 (UniProt P01850) was 1.01 ± 0.03; that for A0A0A0MRI1|Q8IXQ4 (UniProt Q8IXQ4) was 0.9279 ± 0.0034.
Same read-out and setting: the value for “A0A0A0MRR5|Q96BW1 and related entries (UniProt Q96BW1)” was 1.09 ± 0.099.
For A0A087WUD1 (UniProt Q6DD87), the NP40-soluble protein abundance came to 1.02 ± 0.022.
Same read-out and setting: the value for A0A075B746|P82921 (UniProt P82921) was 0.97 ± 0.091; that for “A0A0C4DG33|H7BZH3 and related entries (UniProt O43933)” was 1.07 ± 0.076.
Still for that read-out and setting: the value for “A0A0C4DGG9|Q14839 and related entries (UniProt Q14839)” was 1.04 ± 0.036; that for A0A075B6F9|Q9Y314 (UniProt Q9Y314) was 0.974 ± 0.043.
Still for that read-out and setting: next, “A0A087WT12|A0A087X2I2|K7ERP4 and related entries (UniProt P36969)”: 0.98 ± 0.017.
Regarding A0A0C4DGZ1|Q8N5P1 (UniProt Q8N5P1), the NP40-soluble protein abundance turned out to be 0.98 ± 0.037.
Consider “A0A0A0MSK5|Q5JTV8 and related entries (UniProt Q5JTV8)”, for which the NP40-soluble protein abundance came out at 0.966 ± 0.015.
Still for that read-out and setting: the value for A0A087WTX2|Q92504 (UniProt Q92504) was 0.947 ± 0.016.
Same read-out and setting: next, A0A0C4DGS1|P39656 (UniProt P39656): 1.02 ± 0.034; A0A0A0MTH9|O14981 (UniProt O14981): 1.01 ± 0.015; “A0A0C4DGX2|E7ESL0 and related entries (UniProt Q9NWU5)”: 1.06 ± 0.093.
Same read-out and setting: next, A0A087WXI1|Q6NVY1 (UniProt Q6NVY1): 1.05 ± 0.09.
Take “A0A087WVS8|Q70IA6 and related entries (UniProt Q70IA6)”: the NP40-soluble protein abundance was 1.04 ± 0.068.
Regarding A0A0A0MTD5|Q8IYU8 (UniProt Q8IYU8), the NP40-soluble protein abundance is 0.928 ± 0.14.
Take “A0A075B716|H0YN88 and related entries (UniProt P08708)”: the NP40-soluble protein abundance worked out at 0.863 ± 0.087.
Still for that read-out and setting: the value for “A0A087WWU1|Q96Q45 and related entries (UniProt Q96Q45)” was 1.01 ± 0.016; that for A0A0A0MTH3|Q13418 (UniProt Q13418) was 1.02 ± 0.04; that for “A0A0D9SFR6|Q86XP1 and related entries (UniProt Q86XP1)” was 1.06 ± 0.087.
Same read-out and setting: next, “A0A0C4DGT5|Q5RL73 and related entries (UniProt Q5RL73)”: 0.944 ± 0.059.
Still for that read-out and setting: next, “A0A087WUM0|A0A087WYV9|A0A087X1F5 (UniProt P57105)”: 0.9 ± 0.04.
As to A0A087WZE9|Q15651 (UniProt Q15651), the NP40-soluble protein abundance came out at 1.07 ± 0.2.
Still for that read-out and setting: the value for “A0A0A0MT72|Q9BSQ5 and related entries (UniProt Q9BSQ5)” was 1.04 ± 0.052; that for A0A087X0Q9|Q9BVL4 (UniProt Q9BVL4) was 1.03 ± 0.048; that for “A0A0A6YYL2|P0DMM9 and related entries (UniProt P0DMN0+P0DMM9)” was 0.998 ± 0.038.
Same read-out and setting: the value for “A0A0A0MSS8|P42330 and related entries (UniProt P42330)” was 0.924 ± 0.057; that for A0A087WXD1|Q96T83 (UniProt Q96T83) was 0.934 ± 0.089.
